According to PubChem BioAssay AID540276 (National Center for Advancing Translational Sciences (NCATS), 2011):
Out of some 300,000 compounds screened, about 5,400 (1.8%) were called active. Inconclusive results, whose numbers are uncertain, are shown with a selection of clear calls. The call rests on the fitted dose curve; tested in HEK293 cells. A potency beside an inconclusive call is a rough fit, not a confirmed value.

Experiment: qHTS for inhibitors of binding or entry into cells for Marburg Virus
Details: Marburg virus pseudotyped entry inhibition, cell reporter; series mostly up to 37.8 µM
Potency means the concentration at half of the fitted maximal effect.

| SMILES | Potency |
| --- | --- |
| NC(=O)c1ccc(-n2c(CCC(=O)O)ccc2-c2cccs2)cc1 | inactive |
| COc1ccccc1N1CCN(C(=O)c2ccc3c(c2)N(Cc2cc(C)ccc2C)C(=O)c2ccccc2S3(=O)=O)CC1 | inconclusive: 11.2 µM [inhibitor, partial curve, poor fit] |
| CCN(CC)C(=O)c1sc2nc(-c3ccccc3)ccc2c1N | inconclusive: 35.5 µM [inhibitor, single point] |
| N#Cc1cccc(NC(=O)CSc2nnc(-c3n[nH]c4ccccc34)o2)c1 | inconclusive: 3.55 µM [activator, single point] |
| COC(c1ccccc1)c1nnc(CCC(=O)N2CCN(Cc3cccs3)CC2)o1 (stereo unspecified) | inactive |
| Cc1cccc(NC(=O)C(NS(=O)(=O)c2cccc3nsnc23)c2ccccc2)c1C (stereo unspecified) | inconclusive: 3.16 µM [inhibitor, single point] |
| CC(=O)Nc1ccc(S(=O)(=O)N(C)CC(=O)OC(C)C(=O)NC2CCCC2)cc1 (stereo unspecified) | inconclusive: 1.26 µM [inhibitor, single point] |
| COc1ccc(NC(=O)c2ccc(NCC3CCCO3)c([N+](=O)[O-])c2)cc1 (stereo unspecified) | inactive |
| CCN(CC)c1ccc(NC(=O)C2CCN(S(=O)(=O)c3ccc4c(c3)oc(=O)n4C)CC2)c(C)c1 | inactive |
| Cc1ccc(-c2nnn(CC(=O)N(CCO)C(C(=O)NC3CCCC3)c3ccc(F)cc3)n2)o1 (stereo unspecified) | inactive |
| COC(=O)c1sccc1NC(=O)COc1ccc(Cl)cc1Cl | inconclusive: 12.6 µM [activator, single point] |
| Oc1cc2c(cc1O)[C@@H]1c3ccc(O)c(O)c3OC[C@]1(O)C2 | inconclusive: 11.2 µM [inhibitor, partial curve, poor fit] |
| Cc1ccc(C(=O)N2CCN(c3ncnc4c(C)csc34)CC2)cc1 | inconclusive: 3.16 µM [inhibitor, partial curve, poor fit] |
| C=CCn1c(SCc2nc3ccccc3[nH]2)nnc1-c1ccncc1 | inactive |
| Cc1ccc(CNC(=O)c2ccccc2CCc2ccccc2)cc1 | inconclusive: 29.1 µM [inhibitor, single point] |
| O=c1cc(CO)occ1OCc1cccc(C(F)(F)F)c1 | inconclusive: 0.184 µM [inhibitor, partial curve, poor fit] |
| O=[N+]([O-])c1ccccc1N=Nc1c(O)[nH]c2ccc(F)cc12 | inconclusive: 8.91 µM [activator, single point] |
| COC(=O)C(C(=O)Nc1ccccc1C)C1CCCCCC1 (stereo unspecified) | inconclusive: 2.82 µM [inhibitor, full curve] |
| CC(C)C(=O)Nc1cccc(NC(=S)NC(=O)c2ccc3c(c2)OCO3)c1 | inactive |
| COc1cc(OC)c(N(C)S(=O)(=O)c2cccc(C(=O)NC3=NCCS3)c2)cc1Cl | inconclusive: 20 µM [inhibitor, single point] |
| Clc1ccccc1-c1nnc2sc(CCc3ccccc3)nn12 | inactive |
| CC(C)(C)c1ccc(C(=O)c2c[nH]c(C(=O)O)c2)cc1 | inactive |

| SMILES | Potency |
| --- | --- |
| CCOC(=O)Cn1nnnc1C(C(C)C)N(Cc1cccs1)Cc1cc2cc(C)ccc2[nH]c1=O (stereo unspecified) | active: 9.2 µM |
| O=C(Cn1cnc2ccccc2c1=O)c1c[nH]c2ccccc12 | inactive |
| O=C(NCC1CCCO1)c1cccc(NS(=O)(=O)c2ccccc2)c1 (stereo unspecified) | inconclusive: 1.26 µM [inhibitor, single point] |
| Nc1ccc(-c2ccc(N)cc2)cc1 | inactive |
| COC(=O)c1sc2ncccc2c1OCc1ccc(Cl)cc1Cl | inactive |
| Cc1cc(NC(=O)c2ccc3nccnc3c2)ccc1Br | inconclusive: 1.41 µM [activator, partial curve, poor fit] |
| CCC(C)(C)NC(=O)C(c1cccc(OC)c1OC)N(C(=O)CCC(=O)Nc1cc(C)on1)c1ccc2c(c1)OCCO2 (stereo unspecified) | inconclusive: 35.5 µM [inhibitor, partial curve, poor fit] |
| COc1ccc(CNC(=O)C2CC(=O)N(c3ccc(OCC(=O)N4CCCCC4)cc3)C2)cc1 (stereo unspecified) | inconclusive: 0.562 µM [activator, partial curve, poor fit] |
| O=C(Nc1ccc(Oc2cccnc2)cc1)c1cccc([N+](=O)[O-])c1 | inactive |
| Cc1ccc2nc(-c3ccccc3NC(=O)CCC(=O)O)c(=O)[nH]c2c1 | inconclusive: 1 µM [inhibitor, full curve] |
| O=C(CSC(=S)N1CCCCC1)Nc1ncc2c(n1)CCCC2=O | inconclusive: 2.82 µM [inhibitor, partial curve, poor fit] |
| CCCCNC(=O)c1[nH]c(C)c(C(C)=O)c1C | inactive |
| CCN(CC)CCCNC(=O)c1cc(Cl)c(NC(=O)C2=C(C)OCCS2)cc1OC | inconclusive: 10 µM [inhibitor, partial curve, poor fit] |
| Cc1cccc(NC(=O)C2CCCN(S(=O)(=O)c3c(C)[nH]c(=O)[nH]c3=O)C2)c1C (stereo unspecified) | inactive |
| c1coc(-c2nnc3sc(Cc4cccs4)nn23)c1 | inactive |
| N#Cc1cc(-c2ccccc2)nnc1Oc1ccccc1 | inconclusive: 0.794 µM [inhibitor, full curve, poor fit] |
| CCN1CCN(c2ccc(N)cc2)CC1 | inconclusive: 11.2 µM [inhibitor, single point] |
| COc1ccc(C(CNC(=O)c2ccc(S(=O)(=O)Nc3ccc(F)cc3)cc2)N(C)C)cc1 (stereo unspecified) | inconclusive: 35.5 µM [inhibitor, single point] |
| COc1ccc(CCNC(=O)c2ccc3c(c2)N=C(C)c2cc(C)ccc2S3)cc1OC | inconclusive: 14.1 µM [inhibitor, partial curve, poor fit] |
| Cc1cc(C)n(-c2cc(O)c(-n3nc(C)cc3C)cc2O)n1 | inconclusive: 35.5 µM [inhibitor, partial curve, poor fit] |
| CN(C)c1cc[n+](CC(=O)Nc2ccc(Cl)c([N+](=O)[O-])c2)cc1 | inconclusive: 22.4 µM [inhibitor, single point] |
| Cc1cc(Nc2ccccc2)nc(N2CCOCC2)n1 | inconclusive: 5.01 µM [inhibitor, partial curve, poor fit] |

| SMILES | Potency |
| --- | --- |
| C/C=C/c1ccc(OCC(=O)OCC)c(OC)c1 | inconclusive: 5.62 µM [activator, single point] |
| Cc1cc(C)c(S(=O)(=O)N2CCN(C(=O)CN3C(=O)NC4(CCCC4)C3=O)CC2)c(C)c1 | inactive |
| COc1ccc(NC(=O)CN(C)CC(=O)Nc2ccc(Cl)c(S(=O)(=O)N(C)C)c2)cc1 | inactive |
| NS(=O)(=O)c1ccc(CCN2C(=O)/C(=C\c3ccc(Cl)cc3)SC2=S)cc1 | inconclusive: 35.5 µM [inhibitor, single point] |
| COc1ccccc1NC(=O)Cn1nnc(-c2ccccc2NC(=O)c2cccs2)n1 | inconclusive: 0.0891 µM [inhibitor, full curve, poor fit] |
| CC(C)(C)C(=O)Nc1cc(NC(=O)C(C)(C)C)cc(C(=O)Nc2c[nH]c(=O)[nH]c2=O)c1 | inconclusive: 6.31 µM [activator, partial curve, poor fit] |
| CCCNC(=O)C12CCC(C)(c3nc4cc(C)c(C)cc4nc31)C2(C)C (stereo unspecified) | inconclusive: 31.6 µM [inhibitor, single point] |
| Cc1cccc(C(=O)NCC(=O)OCC(=O)NC2CCCCCCC2)c1 | inconclusive: 22.4 µM [activator, single point] |
| O=C(Nc1nc2c(s1)CCCC2)c1ccc(Br)o1 | inconclusive: 11.2 µM [inhibitor, single point] |
| CCOc1cc(/C=C2\NC(=S)N(c3c(C)n(C)n(-c4ccccc4)c3=O)C2=O)ccc1O | inactive |
| COc1ccc(C)cc1S(=O)(=O)N(C)CC(=O)N1CCN(c2ccccc2)CC1 | inconclusive: 11.2 µM [inhibitor, partial curve, poor fit] |
| CCN1CCN(C(=S)c2ccc(SC)cc2)CC1 | inconclusive: 3.66 µM [activator, full curve, poor fit] |
| Cc1cccc(-n2c(C)nc3c(cnn3-c3ccc(F)cc3)c2=O)c1 | inconclusive: 6.31 µM [inhibitor, partial curve, poor fit] |
| Cc1ccc(NC(=O)Nc2ccc(Cl)c(Cl)c2)nc1 | inconclusive: 0.1 µM [activator, full curve, poor fit] |
| C1CCN(c2nc(N3CCCCC3)nc(N3CCNCC3)n2)CC1 | inactive |
| COc1ccccc1N1CCN(C(=O)c2ccccc2SCC(=O)NCc2ccco2)CC1 | inconclusive: 3.55 µM [inhibitor, single point] |
| COc1cc(CNCCSc2nnnn2C)ccc1OCc1ccc(F)cc1 | inconclusive: 0.562 µM [activator, full curve, poor fit] |
| Cc1nn2c(-c3ccccn3)ccnc2c1Cl | inconclusive: 6.31 µM [inhibitor, single point] |
| Cc1ccccc1SCC(=O)N1CCN(c2ccc(C(F)(F)F)cn2)CC1 | inconclusive: 5.62 µM [inhibitor, partial curve, poor fit] |
| COc1ccc(-n2c(SCC3OCCO3)nc3c(sc(=S)n3-c3ccccc3)c2=O)cc1OC | inconclusive: 5.01 µM [inhibitor, partial curve, poor fit] |
| COCCNC(=O)Cn1cnc2sc(C)c(S(=O)(=O)N3CCN(c4ccccc4OC)CC3)c2c1=O | inconclusive: 0.631 µM [inhibitor, full curve, poor fit] |
| CCCc1cnc(N2CCN(C(=O)c3c(-c4ccccc4)noc3C)CC2)nc1 | inconclusive: 6.31 µM [inhibitor, full curve, poor fit] |

Filtered by structure: the entries above with a COOH group (three)

| SMILES | Potency |
| --- | --- |
| NC(=O)c1ccc(-n2c(CCC(=O)O)ccc2-c2cccs2)cc1 | inactive |
| CC(C)(C)c1ccc(C(=O)c2c[nH]c(C(=O)O)c2)cc1 | inactive |
| Cc1ccc2nc(-c3ccccc3NC(=O)CCC(=O)O)c(=O)[nH]c2c1 | inconclusive: 1 µM [inhibitor, full curve] |
